This is an account of results in patent US10323007B1, “N2N N4-disubstituted quinazoline-2,4-diamines and uses thereof” (University of South Florida, priority 2016, dated 2019).

This data set has as its system human HepG2 cells. It is filed as cell-based. To be noted: for Al: Table 6, LD50(HepG2) relative to MIC (isolate 1646). As for the experimental part:
Cytotoxicity assays were performed using human HepG2 cells (human liver epithelial with hepatocellular carcinoma), as described by us previously.^17,24 Cells were cultured in Dulbecco's modified eagle medium (DMEM), supplemented with 10% fetal bovine serum and 1% penicillin-streptomycin for 3 days at 37° C. and 5% CO2. Cells were then diluted to 1×10^5 ml^−1 using fresh DMEM and added to 96 well tissue culture plates at a volume of 100 μL. Plates were incubated for 24 hours at 37° C. and 5% CO2, allowing the cells to adhere to the plastic. […] Plates were then incubated for 48 hours at 37° C. and 5% CO2. After 48 hours the DMEM was removed and 100 μL of new media was added containing MTT (3-(4, 5-dimethylthiazol-2-yl)-2, 5-diphenyltetrazolium bromide), followed by incubation for four hours at 37° C. and 5% CO2. […] Lead compounds were solvated in 100% DMSO for these studies, which served as the negative control. LD50 values were determined for each compound by comparison to vehicle only controls.

On to `CCC/C=C/c1ccc2nc(NCc3ccccc3)nc(NC)c2c1` [Compound 26, (E)-N^2-Benzyl-N^4-methyl-6-(pent-1-en-1-yl)quinazoline-2,4-diamine], for which the Al is on record as 22. The same measure, in the same setting: then `CNc1nc(NCc2ccccc2)nc2ccc(C3=CCCCC3)cc12` [Compound 29, N^2-Benzyl-6-(cyclohex-1-en-1-yl)-N^4-methylquinazoline-2,4-diamine], with 12. Take `CNc1nc(NCc2ccccc2)nc2ccc(C)cc12` [Compound 5, N^2-Benzyl-N^4,6-dimethylquinazoline-2,4-diamine]: the “difference in specificity towards bacteria (LD50 human liver cells vs MIC)” value is listed as 22 fold and the Al stood at 22. With `CCCCCc1ccc2nc(NCc3ccccc3)nc(NC)c2c1` [Compound 27, N^2-Benzyl-N^4-methyl-6-pentylquinazoline-2,4-diamine], the Al is listed as 12. The same measure, in the same setting: then `CNc1nc(NCc2ccccc2)nc2ccc(C3CCCCC3)cc12` [Compound 30, N^2-Benzyl-6-cyclohexyl-N^4-methylquinazoline-2,4-diamine], with 6. As to `CNc1nc(NCc2ccccc2)nc2ccc(Br)cc12` [Compound 4, N^2-Benzyl-6-bromo-N^4-methylquinazoline-2,4-diamine], the “difference in specificity towards bacteria (LD50 human liver cells vs MIC)” value is listed as 46 fold and the Al is 46.
